Measurements published in the supplement of paper PMC12819154, “High-throughput peptide-centric local stability assay extends protein–ligand identification to membrane proteins, tissues and bacteria” (Nature Structural & Molecular Biology, 2025).
Some of the results follow. Most values lie at the level of the controls, where differences are scatter.

Sequences of proteins named here, by UniProt entry; tags and fusion partners are left off. A change or cut given only in a name is not applied to a line headed by its entry.
UniProt Q60520: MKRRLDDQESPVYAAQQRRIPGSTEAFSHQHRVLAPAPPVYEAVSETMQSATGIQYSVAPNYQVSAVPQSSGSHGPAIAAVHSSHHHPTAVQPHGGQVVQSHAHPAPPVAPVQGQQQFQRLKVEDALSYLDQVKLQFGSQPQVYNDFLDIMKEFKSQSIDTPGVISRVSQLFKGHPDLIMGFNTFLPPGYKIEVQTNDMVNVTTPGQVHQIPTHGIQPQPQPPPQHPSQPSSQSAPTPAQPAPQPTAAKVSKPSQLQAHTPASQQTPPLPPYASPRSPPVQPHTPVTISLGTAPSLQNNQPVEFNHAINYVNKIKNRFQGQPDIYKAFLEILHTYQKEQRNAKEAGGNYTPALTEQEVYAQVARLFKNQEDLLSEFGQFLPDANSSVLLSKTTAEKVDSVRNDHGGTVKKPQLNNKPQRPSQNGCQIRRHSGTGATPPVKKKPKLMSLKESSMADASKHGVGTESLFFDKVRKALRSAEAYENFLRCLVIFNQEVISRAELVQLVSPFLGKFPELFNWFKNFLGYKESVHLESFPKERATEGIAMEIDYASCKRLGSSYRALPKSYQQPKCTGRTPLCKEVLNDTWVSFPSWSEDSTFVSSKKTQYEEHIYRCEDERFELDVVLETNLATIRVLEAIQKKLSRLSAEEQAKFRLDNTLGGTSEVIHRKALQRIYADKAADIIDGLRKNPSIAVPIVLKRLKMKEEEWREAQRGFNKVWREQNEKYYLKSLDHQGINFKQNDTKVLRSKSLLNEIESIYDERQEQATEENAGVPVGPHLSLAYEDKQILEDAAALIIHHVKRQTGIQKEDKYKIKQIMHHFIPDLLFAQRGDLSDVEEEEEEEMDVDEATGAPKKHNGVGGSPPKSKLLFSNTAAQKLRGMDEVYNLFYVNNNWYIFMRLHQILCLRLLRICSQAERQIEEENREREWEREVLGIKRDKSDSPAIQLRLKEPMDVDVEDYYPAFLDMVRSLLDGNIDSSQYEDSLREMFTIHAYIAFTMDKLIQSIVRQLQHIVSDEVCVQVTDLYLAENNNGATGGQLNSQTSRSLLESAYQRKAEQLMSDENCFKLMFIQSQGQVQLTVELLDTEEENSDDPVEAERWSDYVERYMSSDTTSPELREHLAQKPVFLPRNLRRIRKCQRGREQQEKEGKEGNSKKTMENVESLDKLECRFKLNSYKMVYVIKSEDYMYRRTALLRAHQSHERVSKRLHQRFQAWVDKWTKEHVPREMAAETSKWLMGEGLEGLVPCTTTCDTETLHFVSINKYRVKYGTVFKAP
UniProt Q5SQY2: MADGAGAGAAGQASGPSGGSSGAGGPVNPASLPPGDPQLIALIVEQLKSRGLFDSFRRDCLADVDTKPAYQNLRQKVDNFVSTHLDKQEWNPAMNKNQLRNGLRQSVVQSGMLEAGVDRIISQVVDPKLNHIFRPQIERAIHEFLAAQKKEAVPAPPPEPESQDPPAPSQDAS
UniProt Q60925: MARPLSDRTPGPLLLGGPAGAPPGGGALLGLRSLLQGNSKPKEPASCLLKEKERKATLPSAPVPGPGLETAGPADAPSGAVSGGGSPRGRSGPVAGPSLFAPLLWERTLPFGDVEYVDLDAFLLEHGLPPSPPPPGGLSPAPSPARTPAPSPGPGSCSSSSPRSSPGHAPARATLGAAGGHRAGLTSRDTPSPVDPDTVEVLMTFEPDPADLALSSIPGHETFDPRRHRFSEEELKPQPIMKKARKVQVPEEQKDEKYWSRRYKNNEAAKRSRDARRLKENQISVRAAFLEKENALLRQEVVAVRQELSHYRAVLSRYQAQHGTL
UniProt Q61151, whole entry: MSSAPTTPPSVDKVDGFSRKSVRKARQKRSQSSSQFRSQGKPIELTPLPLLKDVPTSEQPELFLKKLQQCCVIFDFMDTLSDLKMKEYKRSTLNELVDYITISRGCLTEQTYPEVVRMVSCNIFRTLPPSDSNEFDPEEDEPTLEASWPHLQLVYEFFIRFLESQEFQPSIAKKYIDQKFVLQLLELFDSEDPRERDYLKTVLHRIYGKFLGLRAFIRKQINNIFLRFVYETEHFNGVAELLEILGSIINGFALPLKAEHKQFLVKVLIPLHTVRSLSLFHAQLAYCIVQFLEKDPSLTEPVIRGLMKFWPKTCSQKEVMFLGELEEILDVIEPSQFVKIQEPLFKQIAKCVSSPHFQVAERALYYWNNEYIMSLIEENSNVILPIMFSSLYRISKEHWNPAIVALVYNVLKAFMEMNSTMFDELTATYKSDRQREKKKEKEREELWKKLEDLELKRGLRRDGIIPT
UniProt Q5NCQ5: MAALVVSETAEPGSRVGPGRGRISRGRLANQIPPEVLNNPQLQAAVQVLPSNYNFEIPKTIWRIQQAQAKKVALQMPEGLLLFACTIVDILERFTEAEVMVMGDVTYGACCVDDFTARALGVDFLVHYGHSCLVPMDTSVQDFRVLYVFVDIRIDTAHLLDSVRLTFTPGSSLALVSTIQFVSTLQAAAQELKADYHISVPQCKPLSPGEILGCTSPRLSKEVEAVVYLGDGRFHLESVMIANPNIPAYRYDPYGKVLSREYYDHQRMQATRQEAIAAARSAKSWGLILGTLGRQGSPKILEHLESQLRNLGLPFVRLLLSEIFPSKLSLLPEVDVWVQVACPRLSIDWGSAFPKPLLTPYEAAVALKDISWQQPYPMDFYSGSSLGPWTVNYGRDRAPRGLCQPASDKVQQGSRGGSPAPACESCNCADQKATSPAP
UniProt Q61089: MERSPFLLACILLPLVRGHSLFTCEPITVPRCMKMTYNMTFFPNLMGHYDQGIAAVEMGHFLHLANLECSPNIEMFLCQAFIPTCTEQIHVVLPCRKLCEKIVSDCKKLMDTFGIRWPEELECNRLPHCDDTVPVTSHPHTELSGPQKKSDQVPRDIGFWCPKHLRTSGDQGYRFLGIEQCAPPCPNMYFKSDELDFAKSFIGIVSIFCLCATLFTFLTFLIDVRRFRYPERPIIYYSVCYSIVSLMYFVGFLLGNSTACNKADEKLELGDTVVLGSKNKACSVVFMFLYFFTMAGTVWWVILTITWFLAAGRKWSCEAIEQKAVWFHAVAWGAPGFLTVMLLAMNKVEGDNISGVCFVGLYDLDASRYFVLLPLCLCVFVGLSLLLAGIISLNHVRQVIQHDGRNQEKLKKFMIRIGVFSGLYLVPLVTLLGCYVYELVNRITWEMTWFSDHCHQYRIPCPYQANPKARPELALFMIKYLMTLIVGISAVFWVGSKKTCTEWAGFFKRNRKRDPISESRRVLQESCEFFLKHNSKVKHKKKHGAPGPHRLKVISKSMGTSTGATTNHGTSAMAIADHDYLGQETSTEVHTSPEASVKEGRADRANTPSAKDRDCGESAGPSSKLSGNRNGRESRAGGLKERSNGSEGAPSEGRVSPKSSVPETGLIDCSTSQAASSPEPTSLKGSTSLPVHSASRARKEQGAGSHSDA
UniProt Q61033: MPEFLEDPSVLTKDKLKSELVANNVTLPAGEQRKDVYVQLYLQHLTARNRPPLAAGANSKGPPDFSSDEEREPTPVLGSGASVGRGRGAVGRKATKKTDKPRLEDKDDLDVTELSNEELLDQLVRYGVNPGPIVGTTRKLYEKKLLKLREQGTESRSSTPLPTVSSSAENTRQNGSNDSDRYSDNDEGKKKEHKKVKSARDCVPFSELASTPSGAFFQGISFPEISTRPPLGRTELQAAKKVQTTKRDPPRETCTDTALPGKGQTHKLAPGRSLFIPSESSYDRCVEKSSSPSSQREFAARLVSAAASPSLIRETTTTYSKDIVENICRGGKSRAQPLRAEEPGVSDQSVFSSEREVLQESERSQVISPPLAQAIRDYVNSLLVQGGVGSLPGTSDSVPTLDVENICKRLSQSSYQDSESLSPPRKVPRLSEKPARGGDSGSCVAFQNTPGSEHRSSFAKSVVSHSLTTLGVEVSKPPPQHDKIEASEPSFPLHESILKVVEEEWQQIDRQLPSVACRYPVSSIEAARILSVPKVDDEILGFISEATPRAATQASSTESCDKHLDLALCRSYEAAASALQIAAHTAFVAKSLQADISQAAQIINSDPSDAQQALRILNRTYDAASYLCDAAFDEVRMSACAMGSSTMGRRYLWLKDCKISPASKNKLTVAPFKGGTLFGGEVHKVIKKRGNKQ
UniProt Q61285: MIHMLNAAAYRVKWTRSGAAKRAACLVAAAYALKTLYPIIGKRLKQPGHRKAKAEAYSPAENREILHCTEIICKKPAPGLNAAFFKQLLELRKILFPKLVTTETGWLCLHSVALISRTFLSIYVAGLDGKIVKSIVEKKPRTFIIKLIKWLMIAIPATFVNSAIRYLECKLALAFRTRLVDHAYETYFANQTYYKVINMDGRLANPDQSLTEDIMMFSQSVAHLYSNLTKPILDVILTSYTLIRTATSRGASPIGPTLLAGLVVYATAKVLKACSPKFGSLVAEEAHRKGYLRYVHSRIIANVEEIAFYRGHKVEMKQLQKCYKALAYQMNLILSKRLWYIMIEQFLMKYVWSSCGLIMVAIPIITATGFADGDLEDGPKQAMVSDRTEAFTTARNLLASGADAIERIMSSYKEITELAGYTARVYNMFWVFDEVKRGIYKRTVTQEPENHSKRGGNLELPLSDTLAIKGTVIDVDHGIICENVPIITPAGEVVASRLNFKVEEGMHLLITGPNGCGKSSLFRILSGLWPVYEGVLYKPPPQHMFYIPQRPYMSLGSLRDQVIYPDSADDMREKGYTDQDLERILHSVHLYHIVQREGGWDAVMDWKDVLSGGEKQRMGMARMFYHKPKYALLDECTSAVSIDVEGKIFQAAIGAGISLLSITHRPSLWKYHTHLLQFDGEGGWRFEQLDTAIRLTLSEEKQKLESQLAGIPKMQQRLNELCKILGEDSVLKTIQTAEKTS
UniProt Q61176: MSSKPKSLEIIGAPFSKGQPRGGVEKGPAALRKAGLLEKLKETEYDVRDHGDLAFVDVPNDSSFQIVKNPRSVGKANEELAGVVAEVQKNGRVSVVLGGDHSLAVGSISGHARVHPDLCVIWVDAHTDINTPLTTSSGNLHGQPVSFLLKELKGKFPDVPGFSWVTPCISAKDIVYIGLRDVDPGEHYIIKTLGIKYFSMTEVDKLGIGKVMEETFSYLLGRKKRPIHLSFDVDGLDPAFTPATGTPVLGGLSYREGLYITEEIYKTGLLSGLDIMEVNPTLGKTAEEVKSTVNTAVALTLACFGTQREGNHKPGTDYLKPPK
UniProt Q5XG73: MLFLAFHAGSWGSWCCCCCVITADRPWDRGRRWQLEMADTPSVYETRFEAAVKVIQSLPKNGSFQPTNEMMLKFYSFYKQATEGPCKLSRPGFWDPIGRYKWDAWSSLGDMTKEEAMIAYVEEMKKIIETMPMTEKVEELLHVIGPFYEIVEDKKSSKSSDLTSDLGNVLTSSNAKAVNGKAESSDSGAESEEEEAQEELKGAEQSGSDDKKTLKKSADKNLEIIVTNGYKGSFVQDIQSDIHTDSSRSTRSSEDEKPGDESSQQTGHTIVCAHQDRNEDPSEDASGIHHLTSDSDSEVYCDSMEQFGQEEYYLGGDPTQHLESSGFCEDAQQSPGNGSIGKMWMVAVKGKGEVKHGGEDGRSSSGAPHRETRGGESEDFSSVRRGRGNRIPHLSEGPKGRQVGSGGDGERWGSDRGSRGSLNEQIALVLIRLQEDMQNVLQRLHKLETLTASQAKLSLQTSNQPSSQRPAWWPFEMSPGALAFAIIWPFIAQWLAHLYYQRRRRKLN
UniProt Q5SWD9: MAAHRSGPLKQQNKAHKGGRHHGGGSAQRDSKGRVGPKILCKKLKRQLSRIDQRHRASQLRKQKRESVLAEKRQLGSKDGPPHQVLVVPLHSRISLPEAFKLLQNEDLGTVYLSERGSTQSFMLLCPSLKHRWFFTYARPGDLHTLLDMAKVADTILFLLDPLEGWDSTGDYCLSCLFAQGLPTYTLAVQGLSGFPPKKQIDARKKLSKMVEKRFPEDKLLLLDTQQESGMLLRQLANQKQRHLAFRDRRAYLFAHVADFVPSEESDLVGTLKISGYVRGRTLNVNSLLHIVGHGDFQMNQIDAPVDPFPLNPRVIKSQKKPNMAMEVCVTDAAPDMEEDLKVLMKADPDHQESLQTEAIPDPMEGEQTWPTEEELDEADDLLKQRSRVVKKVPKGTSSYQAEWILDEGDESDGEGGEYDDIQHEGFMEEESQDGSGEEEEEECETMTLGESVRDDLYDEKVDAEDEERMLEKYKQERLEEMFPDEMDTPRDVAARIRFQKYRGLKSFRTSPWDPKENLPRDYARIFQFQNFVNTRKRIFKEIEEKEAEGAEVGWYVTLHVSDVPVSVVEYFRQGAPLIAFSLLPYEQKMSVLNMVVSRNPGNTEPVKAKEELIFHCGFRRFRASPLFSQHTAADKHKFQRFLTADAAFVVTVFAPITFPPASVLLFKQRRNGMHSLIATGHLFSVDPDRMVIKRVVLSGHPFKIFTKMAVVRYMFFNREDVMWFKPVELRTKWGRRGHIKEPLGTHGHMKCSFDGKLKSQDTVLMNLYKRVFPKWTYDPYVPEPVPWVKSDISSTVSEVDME

Compound: CN[C@@H]1C[C@H]2O[C@@](C)([C@@H]1OC)n1c3ccccc3c3c4c(c5c6ccccc6n2c5c31)C(=O)NC4 [staurosporine]
Assay: log2 fold change of tryptic peptide abundance, ligand vs vehicle (limited proteolysis) (log2 ratio); higher = more trypsin-susceptible (destabilized)
Conditions: ligand concentration: 20 uM; sample: mouse liver crude lysate; replicate design: treated separately

| Target | log2 fold change |
| --- | --- |
| UniProt Q60870 (peptide sequence: DKAKETADAISK, peptide start residue: 157) | -0.323 |
| UniProt Q5U431 (peptide sequence: SPLIFLASR, peptide start residue: 390) | -0.131 |
| UniProt Q5U4D8 (peptide sequence: NGVLQDSTDKER, peptide start residue: 601) | 0.297 |
| UniProt Q60805 (peptide sequence: SHPAHTAAPQVTSTASK, peptide start residue: 67) | 0.288 |
| UniProt Q60575 (peptide sequence: SETYVNGKR, peptide start residue: 603) | 0.773 |
| UniProt Q5SWU9 (peptide sequence: TFEDFVR, peptide start residue: 1240) | -0.229 |
| UniProt Q61070 (peptide sequence: TFLQDLGR, peptide start residue: 7) | -0.353 |
| UniProt Q60520 (peptide sequence: SDSPAIQLR, peptide start residue: 939) | -0.318 |
| UniProt Q5SQY2 (peptide sequence: GLFDSFRR, peptide start residue: 51) | -0.187 |
| UniProt Q60943 (peptide sequence: RPTPEEQNPS, peptide start residue: 855) | 0.333 |
| UniProt Q60759 (peptide sequence: CEDNCIR, peptide start residue: 228) | -0.244 |
| UniProt Q60925 (peptide sequence: KVQVPEEQKDEK, peptide start residue: 246) | 0.553 |
| UniProt Q61151 (peptide sequence: MVSCNIFR, peptide start residue: 118) | -0.174 |
| UniProt Q5NCQ5 (peptide sequence: GLCQPASDKVQQGSR, peptide start residue: 401) | -0.0325 |
| UniProt Q61089 (peptide sequence: GSTSLPVHSASR, peptide start residue: 685) | -0.057 |
| UniProt Q5XJV7 (peptide sequence: GHPTQSPGYSYR, peptide start residue: 1263) | 0.25 |

| Target | log2 fold change |
| --- | --- |
| UniProt Q5RJG7 (peptide sequence: SIIQRYGHK, peptide start residue: 105) | -0.125 |
| UniProt Q5NCI0 (peptide sequence: DLNLGTNPR, peptide start residue: 297) | 0.198 |
| UniProt Q61127 (peptide sequence: KYSVIYGR, peptide start residue: 297) | 0.287 |
| UniProt Q5I043 (peptide sequence: ESVIALYR, peptide start residue: 916) | -0.222 |
| UniProt Q5EE38 (peptide sequence: LLLLQACGLR, peptide start residue: 93) | 0.119 |
| UniProt Q5PR69 (peptide sequence: QREAERQEEEQK, peptide start residue: 351) | -0.0631 |
| UniProt Q61033 (peptide sequence: AATQASSTESCDK, peptide start residue: 550) | -0.683 |
| UniProt Q5XJY5 (peptide sequence: VIPEYCR, peptide start residue: 89) | -0.317 |
| UniProt Q5NCX5 (peptide sequence: IAGTQGDMEK, peptide start residue: 1304) | 0.177 |
| UniProt Q61285 (peptide sequence: ILHSVHLYHIVQR, peptide start residue: 584) | 0.371 |
| UniProt Q61176 (peptide sequence: SLEIIGAPFSK, peptide start residue: 7) | -0.075 |
| UniProt Q61069 (peptide sequence: ACDYIQELR, peptide start residue: 247) | 0.149 |
| UniProt Q5XG73 (peptide sequence: GAEQSGSDDKK, peptide start residue: 202) | -0.689 |
| UniProt Q5U430 (peptide sequence: VRVPETAPELKR, peptide start residue: 1002) | 0.525 |
| UniProt Q5SWD9 (peptide sequence: VVLSGHPFK, peptide start residue: 696) | 0.176 |

For convenience, part of the list above.

| Target | log2 fold change |
| --- | --- |
| UniProt Q5U431 (peptide sequence: SPLIFLASR, peptide start residue: 390) | -0.131 |
| UniProt Q5U4D8 (peptide sequence: NGVLQDSTDKER, peptide start residue: 601) | 0.297 |
| UniProt Q60805 (peptide sequence: SHPAHTAAPQVTSTASK, peptide start residue: 67) | 0.288 |
| UniProt Q60575 (peptide sequence: SETYVNGKR, peptide start residue: 603) | 0.773 |
| UniProt Q5SWU9 (peptide sequence: TFEDFVR, peptide start residue: 1240) | -0.229 |
| UniProt Q61070 (peptide sequence: TFLQDLGR, peptide start residue: 7) | -0.353 |
| UniProt Q60520 (peptide sequence: SDSPAIQLR, peptide start residue: 939) | -0.318 |
